Two molecules from publication PMC4562336 can be followed below.

Experiment [1] deals with HsAPC-1 regulatory domain and linker region (residues 14 to 174) (human) (UniProt Q6NUK1). Description: SEC; Superdex 200 pg 16/60; second SEC of the pooled dimer peak (peak 2); purification buffer with 5 mM calcium or 5 mM EGTA, with 1 mM DTT; both purified.
For experiment [2] the target is unchanged. The experiment is described as follows: SEC; Superdex 200 pg 16/60; SEC during purification and second SEC of pooled peaks 2 and 3; purification buffer with 5 mM calcium or 5 mM EGTA, without DTT; both purified. A general note: In gel filtration, larger molecules generally elute earlier.
The target is the same in experiment [3]. Description: crystal structure; calcium-bound HsAPC-1 RD, space groups P2 and P2(1)2(1)2(1); polyethylene glycol 8000 with 0.2 M ammonium sulfate or 0.2 M lithium sulfate; both purified.
For experiment [4], the target named is full-length human mitochondrial ATP-Mg/Pi carrier isoform 1 (HsAPC-1) (human) (UniProt Q6NUK1). The experiment is described as follows: SEC; Superdex 200 pg 16/60; 20 mM Tris pH 7.4, 50 mM NaCl, 0.03% (w/v) LMNG, 0.03 mg/mL tetra-oleoyl cardiolipin; mass of protein, detergent and lipid in the micelle determined colorimetrically; both purified.

Results are given in words; binding and its absence hold for the method and conditions named.

B1: HsAPC-1 regulatory domain and linker region (residues 14 to 174) (domain or fragment, UniProt Q6NUK1 14-174)
chain: ACQDAEQPTRYETLFQALDRNGDGVVDIGELQEGLRNLGIPLGQDAEEKIFTTGDVNKDGKLDFEEFMKYLKDHEKKMKLAFKSLDKNNDGKIEASEIVQSLQTLGLTISEQQAELILQSIDVDGTMTVDWNEWRDYFLFNPVTDIEEIIRFWKHSTGIDI
In the case of B1, the binding result in experiment [1] was “no binding (condition: with 1 mM DTT)”; in experiment [2], “no binding”; in experiment [3], “no binding”.

B2: full-length human mitochondrial ATP-Mg/Pi carrier isoform 1 (HsAPC-1) (protein, UniProt Q6NUK1 1-477)
chain: MLRWLRDFVLPTAACQDAEQPTRYETLFQALDRNGDGVVDIGELQEGLRNLGIPLGQDAEEKIFTTGDVNKDGKLDFEEFMKYLKDHEKKMKLAFKSLDKNNDGKIEASEIVQSLQTLGLTISEQQAELILQSIDVDGTMTVDWNEWRDYFLFNPVTDIEEIIRFWKHSTGIDIGDSLTIPDEFTEDEKKSGQWWRQLLAGGIAGAVSRTSTAPLDRLKIMMQVHGSKSDKMNIFGGFRQMVKEGGIRSLWRGNGTNVIKIAPETAVKFWAYEQYKKLLTEEGQKIGTFERFISGSMAGATAQTFIYPMEVMKTRLAVGKTGQYSGIYDCAKKILKHEGLGAFYKGYVPNLLGIIPYAGIDLAVYELLKSYWLDNFAKDSVNPGVMVLLGCGALSSTCGQLASYPLALVRTRMQAQAMLEGSPQLNMVGLFRRIISKEGIPGLYRGITPNFMKVLPAVGISYVVYENMKQTLGVTQK
Take B2: the binding entry in experiment [4] is recorded as “no binding”.
